From PubChem BioAssay (EPA / NIEHS)
“And” between values parts separate entries of the source, which are not always exact repeats. Equal entries are not always repeated. The inconclusive results got no clear call from the source; some entries with a clear call stand among them for comparison. Potencies beside an inconclusive call are fits to weak or partial responses and may not hold up. Some structures have more than one record in an assay (separate samples or runs), and their calls can disagree. The source made the active and inactive calls. Rule for the calls: active = hit-call score of the fitted dose curve at least 0.9, where 1 is the maximum; inconclusive = response in the unintended direction; inactive = score below 0.9.

Sequences of proteins named here, by UniProt entry; tags and fusion partners are left off.
UniProt P04637, whole entry, looked up: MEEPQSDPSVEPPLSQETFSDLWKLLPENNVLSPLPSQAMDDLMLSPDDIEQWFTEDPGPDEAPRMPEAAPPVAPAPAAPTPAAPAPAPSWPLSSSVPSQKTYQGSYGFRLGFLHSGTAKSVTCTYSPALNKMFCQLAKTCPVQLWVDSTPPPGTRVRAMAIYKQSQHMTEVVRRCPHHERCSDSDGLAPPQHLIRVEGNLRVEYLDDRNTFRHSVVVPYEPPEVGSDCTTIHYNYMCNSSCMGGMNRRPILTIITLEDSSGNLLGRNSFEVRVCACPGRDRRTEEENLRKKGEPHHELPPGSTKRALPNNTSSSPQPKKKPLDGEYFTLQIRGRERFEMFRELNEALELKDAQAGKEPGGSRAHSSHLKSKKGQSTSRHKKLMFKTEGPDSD

Columns and labels:
[1] = TOX21_p53_BLA_p4_viability: Viability Assessment in the Tox21 HCT-116 p53 Agonism Beta-lactamase Assay, Phase 4 (AID 2283597);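 note: hits lower the luminescence signal meaning cytotoxicity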
Summary of the method: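 ATP content by CellTiter-Glo luminescence, 30 min RT, read after the beta-lactamase ratio step. Cells: HCT116, 4000/well, compound added after 5 h, exposure 16 h at 37C. Signal loss = reduced viability.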

[2] = molecular target: Cellular tumor antigen p53 (Homo sapiens) (UniProt P04637); experiment: TOX21_p53_BLA_p5_ratio: Tox21 HCT-116 p53 Agonism Beta-lactamase Assay, Ratio, Phase 5 (AID 2283599)
Summary of the method: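 Beta-lactamase reporter ratio (blue 460 nm over green 530 nm, 405 nm excitation) after 2 h CCF4-AM loading, in HCT-116 cells exposed 16 h at 37 C to compounds pinned at 217-fold dilution. Increases relative to DMSO baseline scored.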

[3] = TOX21_p53_BLA_p5_viability: Viability Assessment in the Tox21 HCT-116 p53 Agonism Beta-lactamase Assay, Phase 5 (AID 2283600)
Summary of the method: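 ATP luminescence (CellTiter-Glo, 30 min, RT) served as the viability read-out, with loss of signal indicating cytotoxicity. Compounds in DMSO were pinned at a 217-fold dilution onto 4000 cells/well and incubated 16 h, 37C.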

[4] = molecular target: Cellular tumor antigen p53 (Homo sapiens) (UniProt P04637); experiment: TOX21_p53_BLA_p4_ratio: Tox21 HCT-116 p53 Agonism Beta-lactamase Assay, Ratio, Phase 4 (AID 2283601)
Summary of the method: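 Signal is the blue/green (460nm/530nm) ratio of cleaved versus uncleaved CCF4-AM substrate, read after 2 h substrate loading. Cells were HCT116 carrying the p53-responsive beta-lactamase reporter, dosed 16 h at 37C, 5% CO2; CellTiter-Glo measured in parallel.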

[5] = Tanguay_ZF_120hpf_OTIC_legacy: (Legacy) Oregon State University Tanguay Lab 120 Hour Post-fertilization zebrafish Assay for Otic Vesicle Malformation (AID 2283639)
Summary of the method: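 Statically exposed wild-type 5D zebrafish embryos, kept sealed and dark at 28C through 120 hours post fertilization, were examined by brightfield microscopy for otic vesicle defects. Responses were recorded as present or absent and analysed relative to DMSO.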

CS(=O)(=O)c1ccc(C2=C(c3ccccc3)C(=O)OC2)cc1
AC50 [1]: inconclusive: 23 µM | AC50 [2]: inconclusive: 40 µM | outcome [3]: inactive

O=C(O[C@@H]1Cc2c(O)cc(O)cc2O[C@@H]1c1cc(O)c(O)c(O)c1)c1cc(O)c(O)c(O)c1
outcome [1]: inactive | outcome [2]: inactive | outcome [3]: inactive

CN1CCc2cccc3c2[C@H]1Cc1ccc(O)c(O)c1-3
AC50 [1]: active: 35.5 µM and active: 44.9 µM | AC50 [2]: active: 86.8 µM | outcome [2]: inactive | AC50 [3]: inconclusive: 5.24 µM and inconclusive: 11.6 µM | AC50 [4]: active: 67.3 µM

O=C(c1ccc(O)cc1)c1ccc(O)cc1O
AC50 [1]: inconclusive: 35.7 µM and inconclusive: 17.3 µM | AC50 [2]: active: 86.2 µM | outcome [2]: inactive | AC50 [3]: inconclusive: 46.1 µM and inconclusive: 46.5 µM | AC50 [4]: active: 72.9 µM

CC(C)(C)C1CCC(O)CC1 (configuration not stated)
outcome [1]: inactive | AC50 [2]: inconclusive: 46.1 µM and inconclusive: 46.6 µM | AC50 [3]: inconclusive: 46.6 µM

Brc1nc2ccccc2s1
AC50 [1]: inconclusive: 46.1 µM | AC50 [2]: inconclusive: 46.1 µM | outcome [2]: inactive | AC50 [3]: inconclusive: 0.00419 µM | outcome [4]: inactive

C=CC(C)(C)C
AC50 [1]: inconclusive: 0.199 nM and inconclusive: 43.1 µM | AC50 [2]: inconclusive: 46.1 µM | AC50 [3]: inconclusive: 43.1 µM

O=C(O)c1cc(C(=O)O)cc([N+](=O)[O-])c1
AC50 [1]: inconclusive: 78.7 µM | AC50 [2]: inconclusive: 46.1 µM | AC50 [3]: inconclusive: 46.1 µM

CCN(CC#N)c1cccc(C)c1
outcome [1]: inactive | outcome [2]: inactive | AC50 [3]: inconclusive: 82.1 µM

c1ccc2cnccc2c1
AC50 [1]: inconclusive: 46.1 µM | AC50 [2]: inconclusive: 46.1 µM | AC50 [3]: inconclusive: 46.1 µM

CCNc1nc(N)nc(Cl)n1
AC50 [1]: inconclusive: 46.1 µM | outcome [2]: inactive

CCCCOC(=O)C(C)CC (configuration not stated)
outcome [1]: inactive | outcome [2]: inactive

CCOC(C)=O
AC50 [1]: inconclusive: 46.3 µM | outcome [2]: inactive | AC50 [3]: inconclusive: 46.3 µM

NC(=O)NO
AC50 [1]: inconclusive: 23 µM | AC50 [2]: inconclusive: 46.1 µM | outcome [2]: inactive | AC50 [3]: inconclusive: 23 µM | AC50 [4]: inconclusive: 46.1 µM | outcome [4]: inactive

CCCCCC#CC(=O)OC
AC50 [1]: inconclusive: 46.1 µM | outcome [2]: inactive | AC50 [3]: inconclusive: 46.1 µM

Cc1cc(CCC(=O)OCCOCCOCCOC(=O)CCc2cc(C)c(O)c(C(C)(C)C)c2)cc(C(C)(C)C)c1O
AC50 [1]: inconclusive: 0.0129 µM | AC50 [2]: inconclusive: 41 µM | outcome [3]: inactive

Oc1c(Cl)ccc(Cl)c1Cl
outcome [1]: inactive | outcome [2]: inactive | AC50 [3]: inconclusive: 0.00802 µM

CCCC(=O)OCCc1ccccc1
AC50 [1]: inconclusive: 0.153 µM | outcome [2]: inactive | AC50 [3]: inconclusive: 46.1 µM

O=C(O)COCC(=O)O
AC50 [1]: inconclusive: 31.6 µM | AC50 [2]: inconclusive: 46.3 µM

CN(C)CCOCCN(C)C
AC50 [1]: inconclusive: 0.00146 µM | AC50 [2]: inconclusive: 46.1 µM

C=C[Si]1(C)O[Si](C)(C=C)O[Si](C)(C=C)O[Si](C)(C=C)O1 (configuration not stated)
AC50 [1]: inconclusive: 46.1 µM | AC50 [2]: inconclusive: 46.1 µM | outcome [3]: inactive

Cc1[nH]cnc1C[C@H]1CCc2c(C)c3ccccc3n2C1=O
AC50 [1]: active: 41 µM | AC50 [2]: inconclusive: 23 µM | outcome [2]: inactive | outcome [3]: inactive | AC50 [5]: inconclusive: 78.1 µM

CC(=O)C1=C(C)[C@@H]2C[C@@]3(C1)[C@H](C)CC[C@H]3C2(C)C
AC50 [1]: inconclusive: 6.27 µM and inconclusive: 104 µM | AC50 [2]: inconclusive: 57.9 µM

c1ccc(OCCOc2ccccc2)cc1
AC50 [1]: inconclusive: 46 µM | outcome [2]: inactive | outcome [3]: inactive

O=C(O)CC(C(=O)O)S(=O)(=O)O (configuration not stated)
AC50 [1]: inconclusive: 46.1 µM | AC50 [2]: inconclusive: 46.1 µM

OCc1ccc(Cl)cc1Cl
AC50 [1]: inconclusive: 46.1 µM | AC50 [2]: inconclusive: 23 µM | outcome [2]: inactive | outcome [3]: inactive

NS(=O)(=O)O
AC50 [1]: inconclusive: 46.9 µM [middle of 4 runs] | AC50 [2]: inconclusive: 47.6 µM and inconclusive: 46.1 µM | outcome [2]: inactive | AC50 [3]: inconclusive: 84.6 µM | outcome [3]: inactive | AC50 [4]: inconclusive: 47.6 µM and inconclusive: 85.4 µM and inconclusive: 46.9 µM

O=C(Cl)c1c(Cl)c(Cl)c(C(=O)Cl)c(Cl)c1Cl
AC50 [1]: inconclusive: 46.1 µM | AC50 [2]: inconclusive: 46.1 µM | outcome [2]: inactive | AC50 [4]: inconclusive: 46.1 µM
